# Where “and” joins values, the source holds several entries; their conditions need not be identical. Identical values can stand only once. The list shows a part of the results. Further columns of the screen follow, without active or inactive calls. Most of these compounds were active or inconclusive in the main read-out, so they are no random draw. Words in brackets tell the shape of the fitted curve; partial curves, single points and poor fits give uncertain potencies.
# Assay: qHTS Assay for Modulators of Lamin A Splicing
# Settings: HeLa LMNA splicing GFP/RFP minigene ratio, 48 h
# Outline: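 S3 HeLa stable clones carrying a lamin A-EGFP splicing minigene plus DsRed2 were seeded at 600 cells/well in Opti-MEM with 2% FBS, pin-dosed and incubated 48 h at 37°C. Acumen cytometry (488 nm) gave the GFP/RFP total-intensity ratio.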
# [1] = measured here: RFP viability control channel
# [2] = measured here: GFP splicing reporter channel
Compound,AC50 [1],AC50 [2]
CC1CCN(CC(O)COCCC23CC4CC(CC(C4)C2)C3)CC1 (configuration not stated),"31.6 µM [rising, single point]",–
CCCCSCCCNC(=O)CN1C(=O)c2cccnc2Oc2ccc(Cl)cc21,"1.12 µM [falling, single point]","3.55 µM [falling, single point]"
CCn1c(C(=O)NC(C)c2ccc3c(c2)OCCO3)cc2sccc21 (configuration not stated),"12.6 µM [rising, single point]",–
Cc1cc(-c2nc3cccnc3s2)ccc1NS(=O)(=O)c1ccc2c(c1)OCCO2,"25.1 µM [rising, single point]","15.8 µM [rising, single point]"
CC(C)(C)c1ccccc1OCCOCCSc1ncccn1,"12.6 µM [rising, single point]","12.6 µM [rising, partial curve]"
CS/C(=N\S(=O)(=O)c1cccs1)Nc1ccc(N2CCOCC2)cc1,"35.5 µM [rising, single point]",–
CCOc1ccc(S(=O)(=O)NCC(c2ccco2)S(=O)(=O)c2cccs2)cc1 (configuration not stated),"0.00398 µM [falling, full curve, poor fit]",–
CCOC(=O)CNC(c1ccccc1)c1cc(Br)ccc1NC(=O)CCN1CCOCC1 (configuration not stated),"12.6 µM [falling, partial curve]","35.5 µM [falling, single point]"
CC1(C(=O)OCC(=O)N2c3ccccc3Sc3ccccc32)CC1(Cl)Cl (configuration not stated),"35.5 µM [rising, single point]",–
CCN(CC)CCCC(C)Nc1c2ccc(Cl)cc2nc2ccc(OC)cc12 (configuration not stated),"35.5 µM [falling, single point] and 4.47 µM [falling, full curve, poor fit]","14.1 µM [falling, partial curve] and 4.47 µM [falling, full curve, poor fit]"
N#Cc1cc2ccc(N3CCOCC3)cc2cc1C#N,"35.5 µM [falling, single point]",–
CCn1c(SCC(=O)Nc2cc(OC)c(OC)c(OC)c2)nnc1-c1cccs1,"12.6 µM [rising, partial curve]","12.6 µM [rising, partial curve]"
COc1ccc(N2CCN(C(=O)CCc3c(C)nn(-c4ccc(N5CCCC5)nn4)c3C)CC2)cc1,"0.1 µM [falling, full curve]","0.0447 µM [falling, full curve]"
COc1ccc(Nc2nc(NCc3ccco3)nc(N/N=C/c3ccc(O)cc3)n2)cc1,"25.1 µM [falling, partial curve, poor fit]","35.5 µM [falling, partial curve]"

# — PubChem BioAssay AID1487 (National Center for Advancing Translational Sciences (NCATS), 2009)
